Measured values published in PubChem BioAssay AID1671190 (National Center for Advancing Translational Sciences (NCATS), 2021).
Screen size: about 580,000 compounds; about 6,100 (1.1%) were called active. The shares of active, inactive and inconclusive entries below differ from those in the screen. Calls follow the shape of the dose curve; as a rule, active = well fitted inhibition curve with a large enough effect; inconclusive = small, poorly fitted or top-dose-only effect, or another doubt; inactive = no such curve, though single readings can be large or run the other way. Potencies beside an inconclusive call are fits to weak or partial responses and may not hold up.

Sequences of proteins named here, by UniProt entry; tags and fusion partners are left off.
UniProt P18054, whole entry, looked up: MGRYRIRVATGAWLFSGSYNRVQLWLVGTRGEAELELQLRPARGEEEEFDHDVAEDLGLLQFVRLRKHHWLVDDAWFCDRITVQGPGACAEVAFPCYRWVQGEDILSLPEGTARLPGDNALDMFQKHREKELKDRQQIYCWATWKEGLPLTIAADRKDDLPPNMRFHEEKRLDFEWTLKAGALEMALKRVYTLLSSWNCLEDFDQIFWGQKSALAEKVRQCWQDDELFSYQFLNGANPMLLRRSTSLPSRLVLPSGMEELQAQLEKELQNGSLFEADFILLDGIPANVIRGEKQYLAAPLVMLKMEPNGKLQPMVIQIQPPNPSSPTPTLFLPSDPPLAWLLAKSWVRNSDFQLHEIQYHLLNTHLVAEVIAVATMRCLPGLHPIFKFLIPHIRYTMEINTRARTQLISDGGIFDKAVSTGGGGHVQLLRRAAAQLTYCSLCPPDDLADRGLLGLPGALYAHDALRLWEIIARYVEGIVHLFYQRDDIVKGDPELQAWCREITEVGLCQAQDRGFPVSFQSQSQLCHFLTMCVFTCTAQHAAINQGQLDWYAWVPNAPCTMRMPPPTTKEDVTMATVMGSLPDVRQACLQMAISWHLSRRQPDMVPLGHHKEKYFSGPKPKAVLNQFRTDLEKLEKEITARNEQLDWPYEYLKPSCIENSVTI

target: Polyunsaturated fatty acid lipoxygenase ALOX12 (Homo sapiens) (UniProt P18054); assay: Primary qHTS assay for inhibitors of human arachidonate 12S-lipoxygenase (ALOX12): Round 2; settings: purified 12hLO, xylenol orange hydroperoxide absorbance; activity change, negative = inhibition: at 108 µM (top of the series) unless noted
Summary of the method: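 Purified human 12hLO (150 nM final) in 25 mM Hepes, 0.01% Triton X-100, pH 7.0 was preincubated 15 min at room temperature with compound. Then 40 uM arachidonic acid was added, 30 min. Hydroperoxide was read by Fe-XO absorbance ratio 573/405 nm.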
% is scaled to controls: 0 for no effect and ±100 for the full control effect; potency is read from the fitted curve at half-maximal effect.

Row | Structure (SMILES) | activity change, negative = inhibition | Potency
1 | CC(=O)Nc1cccc(-c2ccnc3c2CC(C)(C(=O)NCc2cccs2)O3)c1 (centres undefined) | inactive: 3.88% | –
2 | O=C(CS(=O)(=O)c1ccc(Cl)cc1)N1CCN(c2ccccc2)CC1 | inactive: 1.39% | –
3 | CNC(=O)[C@@H]1C[C@H](Oc2ccccc2)CN1C(=O)c1cc2ccccc2[nH]1 | inactive: 11.1% | –
4 | O=[N+]([O-])c1cccc(C2C3CCC/C(=C\c4ccco4)C3=NN2c2ccccc2)c1 (centres undefined) | – | inconclusive: 17.8 µM [inhibitor, full curve, poor fit]
5 | CC(=O)N(C(C)=O)c1c(C#N)c(C)n(-c2ccccc2)c1C(=O)c1ccccc1 | inactive: -8.75% | –
6 | CCCN1CCN(c2ccc(C(=O)N(C)Cc3ccc4ccccc4n3)cn2)CC1 | – | inconclusive: 100 µM [inhibitor, partial curve, poor fit]
7 | COc1ccc2cc(C3(C)NC(=O)N(Cc4coc(-c5cccs5)n4)C3=O)ccc2c1 (centres undefined) | – | inconclusive: 25.1 µM [inhibitor, full curve, poor fit]
8 | Cc1cc(S(=O)(=O)Nc2ccc(C(=O)N3CC(C)OC(C)C3)cc2)ccc1F (centres undefined) | – | inconclusive: 39.8 µM [inhibitor, partial curve, poor fit]
9 | C/C(=C\c1ccco1)C1C(C#N)=C(N)Oc2n[nH]c(-c3ccccc3)c21 (centres undefined) | – | inconclusive: 44.7 µM [inhibitor, partial curve, poor fit]
10 | CC1CCCC(NC(C(=O)NC2CC2)c2ccccc2)C1C (centres undefined) | inactive: 3.8% | –
11 | CC(=O)C1(O)C(C)CC2C3CC=C4CC(O)CCC4(C)C3CCC21C (centres undefined) | inactive: -19.5% | –
12 | OC(c1ccc2c(c1)CN(Cc1cccc3nccnc13)CCO2)C1CCCCC1 (centres undefined) | – | inconclusive: 126 µM [inhibitor, single point]
13 | COc1ccc(NC2C=CS(=O)(=O)C2)c(OC)c1 (centres undefined) | – | inconclusive: 17.8 µM [inhibitor, full curve, poor fit]
14 | Clc1ccc(CN2CCC3(CC2)CC(c2ccccc2)=NO3)cc1 | – | inconclusive: 14.1 µM [inhibitor, full curve, poor fit]
15 | C=CCC(C(=O)NC(C)c1ccccc1)C(=O)NC(C)c1ccccc1 (centres undefined) | inactive: -27.9% | –
16 | CCc1ccccc1NC(=O)CN1C(=O)NC2(CCC(C)CC2)C1=O (centres undefined) | – | inconclusive: 10 µM [inhibitor, full curve]
17 | Cc1nn2c(c1-c1ccccc1-c1ccccc1)N(C(=O)Cc1ccc3c(c1)OCO3)CCC2 | – | inconclusive: 100 µM [inhibitor, partial curve, poor fit]
18 | O=C(c1ccco1)N1CCN(Cc2ccccc2Br)CC1 | – | inconclusive: 3.55 µM [inhibitor, full curve, poor fit]
19 | COc1ccc(C[C@@H]2CN3C(=NC[C@@H]3C)N2C[C@H](C)NC(=O)CCC2CCCCC2)cc1 | inactive: -12.6% | –
20 | O=C(/C=C/c1ccccc1)NC(NC(=S)Nc1ccc(Cl)cc1)C(Cl)(Cl)Cl (centres undefined) | – | inconclusive: 1.12 µM [inhibitor, full curve, poor fit]
21 | O=C(O)CCCN=CC1=C(O)CNC1=O | inactive: -9.66% | –
22 | CCOc1ccc(Cl)cc1CN(C)C(=O)c1cccc(-n2cnnc2)c1 | inactive: 14.8% | –
23 | Cc1ccccc1CN1CCC(N2CCCCCC2)CC1 | – | inconclusive: 0.316 µM [inhibitor, full curve, poor fit]

Row | Structure (SMILES) | activity change, negative = inhibition | Potency
24 | O=C(CN1CCOc2ccccc2C1)N[C@H]1CCOC[C@H]1C1CCOCC1 | – | inconclusive: 70.8 µM [inhibitor, partial curve]
25 | CCCCn1c(=O)n(CC(=O)Nc2ccc(F)c(F)c2)c(=O)c2c1ncn2CCC(C)C | inactive: -25.2% | –
26 | COc1cc(OC)c(NC(=O)NC(C)c2c(-n3cccc3)sc(C)c2C)cc1Cl (centres undefined) | – | inconclusive: 79.4 µM [inhibitor, partial curve, poor fit]
27 | CCCCNC(=O)CSc1nnc(Cc2ccc(Cl)c(Cl)c2)c(=O)[nH]1 | – | inconclusive: 44.7 µM [inhibitor, partial curve, poor fit]
28 | COc1ccc(-c2nn(C)c(=O)[nH]2)cc1 | – | inconclusive: 126 µM [inhibitor, single point]
29 | CCOC(=O)c1cc(-c2ccc(C)cc2)n(CCC(=O)N2CCN(c3ccccn3)CC2)c1C | – | inconclusive: 56.2 µM [inhibitor, partial curve, poor fit]
30 | Cc1ccc(C)c(S(=O)(=O)NCc2ccccc2S(=O)(=O)N2CCCCC2)c1 | inactive: -5.63% | –
31 | CCOc1ccccc1N(CC(=O)N1CCN(Cc2ccccc2)CC1)S(=O)(=O)c1ccccc1 | inactive: 4.93% | –
32 | CC1(CCCCc2ccccc2)COc2ccc(C(=O)NCCN3CCOCC3)cc2N1 (centres undefined) | – | active: 100 µM
33 | COc1ccc(/C=N/O)c(OC)c1 | – | inconclusive: 39.8 µM [inhibitor, single point]
34 | Cc1ccc2nc(-c3cccnc3)cc(C(=O)NCc3cccs3)c2c1 | – | inconclusive: 39.8 µM [inhibitor, partial curve, poor fit]
35 | COc1ccc(-c2c[nH]c3c(SCC(=O)Nc4ccc(OC)c(OC)c4)ncnc23)cc1 | – | inconclusive: 7.08 µM [inhibitor, full curve, poor fit]
36 | Cc1cc(C)n2c(NC3CCCCC3)c(-c3ccccn3)nc2n1 | inactive: -19.1% | –
37 | CCOc1ccc(C2C(C#N)=C(N)N(c3sc4c(c3C#N)CCCC4)C3=C2C(=O)CCC3)cc1 (centres undefined) | inactive: 33.6% | –
38 | Nc1cc(Cc2ccccc2)ccc1O | – | active: 5.62 µM
39 | CC(Oc1ccccc1)C(=O)Nc1oc(-c2ccco2)c(-c2ccco2)c1C#N (centres undefined) | – | inconclusive: 44.7 µM [inhibitor, partial curve, poor fit]
40 | c1cnc(-c2nc(Cn3cc(C4CCOC4)nn3)cs2)nc1 (centres undefined) | – | inconclusive: 39.8 µM [inhibitor, single point]
41 | CCOc1ccccc1Oc1ccc(CNC(=O)Nc2cccnc2)cn1 | – | inconclusive: 3.98 µM [inhibitor, full curve, poor fit]
42 | CCN1C(=O)c2ccccc2Sc2ccc(C(=O)NCCCN3CCCCC3)cc21 | – | inconclusive: 0.316 µM [inhibitor, full curve, poor fit]
43 | Cc1ccc([C@H]2C[C@@H](O)[C@H](n3cc(C4CC4)nn3)CN2C(=O)C2CCCCC2)cc1 | – | inconclusive: 126 µM [inhibitor, partial curve, poor fit]
44 | CCOC(=O)Cn1c(N)c(C(=O)OC)sc1=S | – | inconclusive: 10 µM [inhibitor, full curve, poor fit]
45 | CC(NC(=O)Nc1ccccc1C(F)(F)F)c1c(-n2cccc2)sc2c1CCCC2 (centres undefined) | inactive: -24.1% | –
46 | Cc1ccc(NC(=O)N2CCCCCCNC(=O)[C@@H]3CCCC[C@@H]32)cc1C | inactive: 9.68% | –

Row | Structure (SMILES) | activity change, negative = inhibition | Potency
47 | CCOC(=O)c1ccc(N2CSC3=C(C#N)C(c4cccs4)CC(=O)N3C2)cc1 (centres undefined) | – | active: 17.8 µM
48 | CCOc1ccc(C2C3=C(CCCC3=O)N(CC(=O)O)C3=C2C(=O)CCC3)cc1 | – | inconclusive: 31.6 µM [inhibitor, single point]
49 | COc1ccccc1NC(=O)CSc1oc(-c2cccs2)nc1S(=O)(=O)c1ccc(Br)cc1 | – | inconclusive: 25.1 µM [inhibitor, partial curve, poor fit]
50 | CC(C(=O)Nc1cc([N+](=O)[O-])ccc1Cl)N1CCN(c2ccccc2)CC1 (centres undefined) | inactive: 5.39% | –
51 | O=C(NCCc1ccc(Cl)cc1)C1CCC(CNc2nc(=S)[nH]c3ccccc23)CC1 (centres undefined) | inactive: -6.47% | –
52 | CN(C(=O)CSc1nc2c(c(=O)[nH]1)CCCC2)c1ccccc1 | inactive: -1.38% | –
53 | N#Cc1c(N)n(CCNC(=O)c2ccc(Cl)cc2)c2nc3ccccc3nc12 | inactive: 0% | –
54 | Cc1ccc(CN2CCc3nc(C4CC4)nc(-c4ccc(O)cc4)c3CC2)cc1 | – | inconclusive: 44.7 µM [inhibitor, partial curve]
55 | CCOc1ccc(S(=O)(=O)N2CCN(c3c(C)cccc3C)CC2)c2ccccc12 | – | inconclusive: 141 µM [inhibitor, partial curve, poor fit]
56 | Cn1c(CNS(=O)(=O)c2ccc(Br)cc2)n[nH]c1=S | – | inconclusive: 79.4 µM [inhibitor, partial curve, poor fit]
57 | COC(=O)CSC1=C(C#N)C(c2ccc(Cl)cc2)C(C(=O)OC)C(=O)N1 (centres undefined) | inactive: -27.8% | –
58 | CN(C)/C=C1\Oc2ccc3ccccc3c2C1=O | – | active: 5.01 µM
59 | Nc1nccnc1C(=O)Nc1ccc(SCc2cccnc2)cc1 | – | inconclusive: 3.16 µM [inhibitor, partial curve, poor fit]
60 | CCOc1ccccc1NC(=O)C1CCN(S(=O)(=O)c2ccccc2)CC1 | – | inconclusive: 178 µM [inhibitor, partial curve, poor fit]
61 | O=C(CCC(=O)OCC(=O)c1ccc(Cl)cc1Cl)Nc1cccc2cccnc12 | – | inconclusive: 8.91 µM [inhibitor, full curve, poor fit]
62 | O=S(=O)(c1ccc(F)cc1)N1CCN(C(=S)NC2CC2)CC1 | – | inconclusive: 100 µM [inhibitor, single point]
63 | Cc1cccc(Cc2sc(N)nc2C)c1 | – | inconclusive: 6.31 µM [inhibitor, full curve, poor fit]
64 | CCOc1ccc(CC2S/C(=N/N=C/c3ccco3)NC2=O)cc1 (centres undefined) | inactive: 1.72% | –
65 | O=C(NCCN1CCCCC1)c1nc(-c2cccc3[nH]ccc23)no1 | – | inconclusive: 100 µM [inhibitor, partial curve, poor fit]
66 | COc1cccc(-n2ccnc2SCC(=O)Nc2ccccc2)c1 | inactive: -8.68% | –
67 | C=CCNCCCCOc1ccc(C)cc1[N+](=O)[O-] | – | inconclusive: 0.199 µM [inhibitor, full curve, poor fit]
68 | Cc1cccc2nc3ccccc3cc12 | – | inconclusive: 158 µM [inhibitor, single point]
69 | Fc1ccc(/C=N/Nc2cc(C(F)(F)F)ccc2Cl)cc1 | – | inconclusive: 44.7 µM [inhibitor, partial curve, poor fit]

Filtered by structure, those above with a nitro group on carbon.
Row | Structure (SMILES) | activity change, negative = inhibition | Potency
4 | O=[N+]([O-])c1cccc(C2C3CCC/C(=C\c4ccco4)C3=NN2c2ccccc2)c1 (centres undefined) | – | inconclusive: 17.8 µM [inhibitor, full curve, poor fit]
50 | CC(C(=O)Nc1cc([N+](=O)[O-])ccc1Cl)N1CCN(c2ccccc2)CC1 (centres undefined) | inactive: 5.39% | –
67 | C=CCNCCCCOc1ccc(C)cc1[N+](=O)[O-] | – | inconclusive: 0.199 µM [inhibitor, full curve, poor fit]
